# Data reported in PMC5009372.
# Sequences of proteins named here, by UniProt entry; tags and fusion partners are left off.
# UniProt P0C2Z6: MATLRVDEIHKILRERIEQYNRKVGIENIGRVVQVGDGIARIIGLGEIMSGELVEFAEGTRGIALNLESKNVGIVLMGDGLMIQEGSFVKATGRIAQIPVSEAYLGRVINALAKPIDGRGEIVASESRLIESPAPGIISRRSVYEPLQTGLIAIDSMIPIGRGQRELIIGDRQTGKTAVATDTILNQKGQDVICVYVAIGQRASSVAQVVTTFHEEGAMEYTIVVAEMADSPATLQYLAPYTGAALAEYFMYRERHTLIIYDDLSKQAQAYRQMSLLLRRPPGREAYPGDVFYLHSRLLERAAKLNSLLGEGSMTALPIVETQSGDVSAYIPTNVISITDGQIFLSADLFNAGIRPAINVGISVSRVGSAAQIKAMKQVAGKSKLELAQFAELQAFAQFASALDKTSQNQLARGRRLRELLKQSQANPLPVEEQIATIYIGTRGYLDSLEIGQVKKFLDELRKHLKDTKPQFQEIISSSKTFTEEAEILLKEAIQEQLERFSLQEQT
# UniProt P0C355: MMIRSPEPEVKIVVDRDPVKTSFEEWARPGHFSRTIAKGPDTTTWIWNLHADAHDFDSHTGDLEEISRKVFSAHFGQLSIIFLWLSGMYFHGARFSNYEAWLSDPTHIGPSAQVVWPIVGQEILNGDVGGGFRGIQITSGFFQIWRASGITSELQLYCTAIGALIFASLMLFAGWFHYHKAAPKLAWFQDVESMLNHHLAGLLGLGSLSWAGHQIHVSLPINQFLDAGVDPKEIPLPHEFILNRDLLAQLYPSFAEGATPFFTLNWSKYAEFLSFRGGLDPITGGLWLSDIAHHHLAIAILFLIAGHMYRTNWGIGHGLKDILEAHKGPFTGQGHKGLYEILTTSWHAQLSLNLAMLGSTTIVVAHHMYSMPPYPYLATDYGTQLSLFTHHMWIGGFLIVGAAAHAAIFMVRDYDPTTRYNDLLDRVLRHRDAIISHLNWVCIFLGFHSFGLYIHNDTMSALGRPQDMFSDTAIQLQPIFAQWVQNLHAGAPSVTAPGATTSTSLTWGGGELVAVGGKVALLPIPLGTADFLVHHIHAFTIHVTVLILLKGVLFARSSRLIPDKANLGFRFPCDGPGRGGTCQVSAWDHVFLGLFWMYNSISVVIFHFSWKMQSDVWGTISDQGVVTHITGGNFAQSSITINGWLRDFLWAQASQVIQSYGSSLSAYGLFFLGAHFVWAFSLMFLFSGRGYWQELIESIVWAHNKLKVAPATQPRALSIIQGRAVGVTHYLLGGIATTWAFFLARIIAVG
# Results are given in words; binding and its absence hold for the method and conditions named.
# Molecular target: T1, YL1 (YELLOW LEAF 1), full-length, in pGBKT7 (rice (Oryza sativa)) (UniProt Q0E3V2)
# T1 sequence: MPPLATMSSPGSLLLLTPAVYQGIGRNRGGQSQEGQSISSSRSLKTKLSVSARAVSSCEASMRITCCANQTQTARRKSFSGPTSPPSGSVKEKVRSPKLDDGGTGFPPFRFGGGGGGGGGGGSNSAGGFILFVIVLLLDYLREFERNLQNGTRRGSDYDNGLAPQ
# Assay: two-hybrid; Matchmaker Gold system (Clontech); YL1 in pGBKT7 (bait), subunits in pGADT7 (prey); S. cerevisiae AH109; growth on SD/-Ade/-His/-Leu/-Trp medium containing X-α-gal
row,binding,Substance
1,no binding,"AtpA (α subunit of chloroplast ATP synthase), in pGADT7 (from UniProt P0C2Z6 1-507)"
2,no binding,"PsaA (PSI core subunit), in pGADT7 (from UniProt P0C355 1-750)"
